# Reference: PubChem BioAssay AID1508597 (Cure First, 2020)
# Aim: 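Knock-downs altering ovarian cancer cell survival with or without PARP inhibitor rucaparib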 (primary screen)
# Cells: human ovarian carcinoma lines grown from tumours: OCI-P5x (papillary serous) and OCI-C5x (clear cell)
# Reagents: siRNA pool against human genes, 1.25 pmol siRNA per well
# Duration: 72 h or 96 h, depending on the cell culture
# Treatment: rucaparib 20 µM (about IC30) or vehicle, present until read-out
# Rucaparib or vehicle: Vehicle
# Cell line: OCI-C5x (clear cell)
# Read-out: 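Luminescent ATP-based viability assay read 72 or 96 h after transfection, depending on culture, given as normalised percent viability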
# Reading the numbers: viability, normalised: higher = more viable cells remaining
# Call rule: 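a well counts as a hit if its normalised viability is under 80 percent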
# Meaning of the calls: active = viability under 80%; inactive = viability 80% or more
# This is a random part of the about 2,100 reagents, under one of the conditions tested. 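Calls flag viability under 80% in either arm, not effects specific to rucaparib; the reference for percent is not stated.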 A number with no mark means an inactive call. A reagent listed more than once was tested more than once; the source does not tell the runs apart. Not given: the 100% reference.
Target gene,technical replicate,"viability, normalised (%)"
KSR2 (kinase suppressor of ras 2),1,60.4 (active)
KSR2 (kinase suppressor of ras 2),2,59.5 (active)
KSR2 (kinase suppressor of ras 2),3,67.7 (active)
PLCB4 (phospholipase C beta 4),1,60.5 (active)
PLCB4 (phospholipase C beta 4),2,46.7 (active)
PLCB4 (phospholipase C beta 4),3,54.1 (active)
SOX14 (SRY-box transcription factor 14),1,49.7 (active)
SOX14 (SRY-box transcription factor 14),2,34.2 (active)
SOX14 (SRY-box transcription factor 14),3,44.6 (active)
NME3 (NME/NM23 nucleoside diphosphate kinase 3),1,49.3 (active)
NME3 (NME/NM23 nucleoside diphosphate kinase 3),1,43.7 (active)
NME3 (NME/NM23 nucleoside diphosphate kinase 3),2,47.3 (active)
NME3 (NME/NM23 nucleoside diphosphate kinase 3),2,35.5 (active)
NME3 (NME/NM23 nucleoside diphosphate kinase 3),3,40.3 (active)
NME3 (NME/NM23 nucleoside diphosphate kinase 3),3,26 (active)
DDX1 (DEAD-box helicase 1),1,30 (active)
DDX1 (DEAD-box helicase 1),1,51.5 (active)
DDX1 (DEAD-box helicase 1),2,28.7 (active)
DDX1 (DEAD-box helicase 1),2,61.7 (active)
DDX1 (DEAD-box helicase 1),3,28.3 (active)
DDX1 (DEAD-box helicase 1),3,54.5 (active)
SSB (small RNA binding exonuclease protection factor La),1,66.7 (active)
SSB (small RNA binding exonuclease protection factor La),2,47 (active)
SSB (small RNA binding exonuclease protection factor La),3,55.3 (active)
PRKAA2 (protein kinase AMP-activated catalytic subunit alpha 2),1,52.8 (active)
PRKAA2 (protein kinase AMP-activated catalytic subunit alpha 2),2,91
PRKAA2 (protein kinase AMP-activated catalytic subunit alpha 2),3,45.8 (active)
FOXP1 (forkhead box P1),1,17.4 (active)
FOXP1 (forkhead box P1),2,27.9 (active)
FOXP1 (forkhead box P1),3,52.4 (active)
PCSK9 (proprotein convertase subtilisin/kexin type 9),1,37.2 (active)
PCSK9 (proprotein convertase subtilisin/kexin type 9),2,32.2 (active)
PCSK9 (proprotein convertase subtilisin/kexin type 9),3,36.7 (active)
FOXC2 (forkhead box C2),1,50.7 (active)
FOXC2 (forkhead box C2),2,40.7 (active)
FOXC2 (forkhead box C2),3,45.6 (active)
NTHL1 (nth like DNA glycosylase 1),1,89.3
NTHL1 (nth like DNA glycosylase 1),2,34 (active)
NTHL1 (nth like DNA glycosylase 1),3,29.5 (active)
TADA1 (transcriptional adaptor 1),1,40.7 (active)
TADA1 (transcriptional adaptor 1),2,51.6 (active)
TADA1 (transcriptional adaptor 1),3,54.4 (active)
RING1 (ring finger protein 1),1,48 (active)
RING1 (ring finger protein 1),2,48.4 (active)
RING1 (ring finger protein 1),3,54.7 (active)
USP21 (ubiquitin specific peptidase 21),1,65.1 (active)
USP21 (ubiquitin specific peptidase 21),2,66.2 (active)
USP21 (ubiquitin specific peptidase 21),3,60.8 (active)
HFM1 (helicase for meiosis 1),1,78.9 (active)
HFM1 (helicase for meiosis 1),2,58.8 (active)
HFM1 (helicase for meiosis 1),3,76.6 (active)
TCF7L1 (transcription factor 7 like 1),1,82.9
TCF7L1 (transcription factor 7 like 1),2,43.1 (active)
TCF7L1 (transcription factor 7 like 1),3,48.4 (active)
GEN1 (GEN1 structure-specific endonuclease),1,70.4 (active)
GEN1 (GEN1 structure-specific endonuclease),2,57 (active)
GEN1 (GEN1 structure-specific endonuclease),3,61.5 (active)
SAP130 (Sin3A associated protein 130),1,35 (active)
SAP130 (Sin3A associated protein 130),2,21.8 (active)
SAP130 (Sin3A associated protein 130),3,32.6 (active)
TERT (telomerase reverse transcriptase),1,46.6 (active)
TERT (telomerase reverse transcriptase),2,59.9 (active)
TERT (telomerase reverse transcriptase),3,51.9 (active)
NCOA2 (nuclear receptor coactivator 2),1,43.8 (active)
NCOA2 (nuclear receptor coactivator 2),2,38.4 (active)
NCOA2 (nuclear receptor coactivator 2),3,39.6 (active)
HK2 (hexokinase 2),1,52.8 (active)
HK2 (hexokinase 2),2,52.1 (active)
HK2 (hexokinase 2),3,53.6 (active)
PRDM16 (PR/SET domain 16),1,40.6 (active)
PRDM16 (PR/SET domain 16),2,37.4 (active)
PRDM16 (PR/SET domain 16),3,39.7 (active)
TRIB3 (tribbles pseudokinase 3),1,55 (active)
TRIB3 (tribbles pseudokinase 3),2,41.7 (active)
TRIB3 (tribbles pseudokinase 3),3,48.5 (active)

Laid out differently: results already given.
Target gene	technical replicate	viability, normalised (%)
NME3 (NME/NM23 nucleoside diphosphate kinase 3)	3	26 (active)
DDX1 (DEAD-box helicase 1)	1	30 (active)
DDX1 (DEAD-box helicase 1)	1	51.5 (active)
DDX1 (DEAD-box helicase 1)	2	28.7 (active)
